# Measurements as given in PubChem BioAssay AID2685 (National Center for Advancing Translational Sciences (NCATS), 2010).
# This is one part of the list. The main result of the screen is listed elsewhere. These columns were measured beside it and carry no call. Most of these compounds were active or inconclusive in the main read-out, so they are no random draw. Words in brackets tell the shape of the fitted curve; partial curves, single points and poor fits give uncertain potencies.
# Test: qHTS Assay for Lipid Storage Modulators in Drosophila S3 Cells;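 on cell number change: cells counted by Cell Tracker Red CMTPX staining in the red channel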
# Conditions: BODIPY lipid droplet fluorescence, 18-24 h; for cell number change: measured here: cell count max response, cells fed with added oleic acid
# Method in brief: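 Laser-scanning cytometry quantifies lipid droplet accumulation (500–530 nm total intensity; droplet/cell object ratio) in oleic acid-fed (400 uM added) Drosophila S3 cells treated with a concentration series. 20 uM Triacsin C defined 100% inhibition.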
# [1] = measured here: lipid fluorescence (Fed channel) AC50, cells fed with added oleic acid
# [2] = measured here: cell number channel AC50, cells fed with added oleic acid
compound,measurement,setting,value
COc1cc(NC(=O)c2nccnc2N)cc(C(=O)Nc2cccc(C(F)(F)F)c2)c1,cell number change,,-9.66%
same,AC50,[1],"0.411 µM [falling, single point]"
CC1Cc2ccccc2N1S(=O)(=O)c1cccc(C(=O)NCC(c2ccco2)N2CCCC2)c1 (stereo not drawn),cell number change,,76%
same,AC50,[2],"29.1 µM [rising, single point]"
Cc1cc(C)nc(N/N=C/C2=C(N3CCOCC3)C(=C/c3ccccc3)/CC2)n1,cell number change,,22.3%
same,AC50,[2],"0.00411 µM [rising, full curve, poor fit]"
same,AC50,[1],"10.3 µM [falling, partial curve]"
CN(C)c1ccc(C(CNS(=O)(=O)c2ccc3ccccc3c2)c2c[nH]c3ccccc23)cc1 (stereo not drawn),cell number change,,-3.48%
same,AC50,[1],"4.61 µM [falling, single point]"
O=C(Nc1nc2ccccc2n1CCN1CCCCC1)c1ccco1,cell number change,,11.9%
same,AC50,[1],"0.13 µM [falling, full curve, poor fit]"
N#CCSc1ncnc2ccccc12,cell number change,,8.45%
Cc1ccc(S(=O)(=O)CC(=O)Nc2nnc(C)s2)cc1,cell number change,,5.42%
same,AC50,[1],"0.164 µM [rising, full curve, poor fit]"
CN1CCN(C2=Cc3ccc(Cl)cc3Sc3ccc(F)cc32)CC1,cell number change,,-82.9%
same,AC50,[2],"16.4 µM [falling, partial curve]"
same,AC50,[1],"16.4 µM [falling, partial curve]"
COc1cc(Cl)c(CN2CCCC(CO)(Cc3ccccc3)C2)cc1OC (stereo not drawn),cell number change,,-9.12%
CCCCC(=O)N/N=C/c1ccc(N2CCOCC2)c([N+](=O)[O-])c1,cell number change,,19.4%
same,AC50,[1],"10.3 µM [rising, single point]"
Cc1ccc(C)c(N2CCN(C(=O)C3CCN(S(=O)(=O)c4cccc5nsnc45)CC3)CC2)c1,cell number change,,-7.47%
same,AC50,[1],"1.64 µM [falling, partial curve]"
O=C(N/N=C/c1cc([N+](=O)[O-])ccc1Cl)c1cc(-c2ccccc2)nc2ccccc12,AC50,[1],"0.103 µM [rising, full curve, poor fit]"
COc1ccc(NC(=O)COC(=O)c2ccc(-n3nc(C)cc3C)cc2)cc1OC,cell number change,,-9.73%
same,AC50,[1],"11.6 µM [rising, partial curve, poor fit]"
CC1CCCCC1NC(=O)COCc1cc(-c2cccs2)on1 (stereo not drawn),cell number change,,-39.9%
same,AC50,[2],"0.0651 µM [falling, full curve, poor fit]"
same,AC50,[1],"29.1 µM [falling, single point]"
O=C(NCc1ccco1)C1Cc2cc(Cl)ccc2O1 (stereo not drawn),cell number change,,16.7%
same,AC50,[1],"29.1 µM [rising, single point]"
CN(C(=O)CN1CCCCCC1)c1c(N)n(Cc2ccccc2)c(=O)[nH]c1=O,AC50,[1],"29.1 µM [rising, single point]"
O=[N+]([O-])c1ccccc1S(=O)(=O)Nc1ccc(S(=O)(=O)Nc2nccs2)cc1,cell number change,,28.9%
CCc1ccc(/C=c2\s/c(=C\C(=O)C(C)(C)C)[nH]c2=O)cc1,cell number change,,-91.9%
same,AC50,[2],"13 µM [falling, partial curve]"
O=C1CCCCCN1CP(=O)(O)CN1CCCCCC1=O,cell number change,,-23.6%
same,AC50,[1],"3.26 µM [falling, full curve]"
O=C1NCC2=C1C(c1ccccc1)Nc1ccccc1N2 (stereo not drawn),cell number change,,-24%
same,AC50,[1],"4.61 µM [falling, full curve, poor fit]"
CCOC(=O)C1=C(c2ccccc2)O/C(=C(/C#N)C(F)(F)F)S1,cell number change,,3.57%
same,AC50,[1],"2.59 µM [rising, partial curve]"
NC(=O)c1cc(S(=O)(=O)NCCc2ccc(S(N)(=O)=O)cc2)cs1,cell number change,,9.85%
same,AC50,[1],"6.51 µM [rising, full curve, poor fit]"
N/C(=N/OC(=O)c1ccccc1Cl)c1ncc([N+](=O)[O-])s1,cell number change,,-32.8%
same,AC50,[2],"29.1 µM [falling, single point]"
CN(C1(C)CCS(=O)(=O)C1)S(=O)(=O)c1ccc2ccccc2c1 (stereo not drawn),cell number change,,-0.98%
same,AC50,[2],"0.082 µM [falling, full curve, poor fit]"
Cc1ccc(C(=O)CSc2nnc(CNc3nc(-c4ccccc4)cs3)n2C)cc1,cell number change,,-7.13%
same,AC50,[1],"6.51 µM [rising, partial curve]"
CC(/C=N/NC(=O)c1cnccn1)=C\c1ccco1,cell number change,,31.1%
same,AC50,[2],"25.9 µM [rising, single point]"
C/C(CC(=O)NC1CCCCC1)=N\NC(=O)c1ccccn1,cell number change,,-5.51%
same,AC50,[2],"0.231 µM [falling, full curve, poor fit]"
same,AC50,[1],"0.092 µM [falling, full curve, poor fit]"
CC(C)(C)c1ccc(OCCN2CCCC2)cc1,cell number change,,-2.91%
same,AC50,[1],"0.731 µM [falling, full curve]"
NC(=O)C1CCN(C(=O)C2CCC(=O)N(C3CCCCCC3)C2)CC1 (stereo not drawn),cell number change,,21.5%
same,AC50,[1],"14.6 µM [rising, partial curve, poor fit]"
COc1ccc(CCN(C)C2CCCN(C(=O)c3ccnn3C)C2)cc1OC (stereo not drawn),cell number change,,1.72%
Cn1nnnc1SCCNCc1ccccc1F,cell number change,,-15.3%
same,AC50,[1],"0.103 µM [falling, full curve, poor fit]"
CCn1c(SCc2nc3ccccc3c(=O)[nH]2)nnc1-c1cccnc1,AC50,[1],"0.58 µM [rising, full curve]"
c1cnc2c(OCc3nc4ccccc4[nH]3)cccc2c1,AC50,[2],"0.58 µM [rising, single point]"
same,AC50,[1],"0.58 µM [rising, single point]"
CN=c1scc(-c2ccc(OC)cc2)n1/N=C(\C)c1cccnc1,cell number change,,-18.5%
same,AC50,[2],"0.58 µM [rising, partial curve, poor fit]"
same,AC50,[1],"29.1 µM [falling, single point]"
O=c1ccc2cc(S(=O)(=O)NCc3ccccc3)ccc2[nH]1,cell number change,,-14.7%
CCCC(NC(=O)COc1cc2c(c3oc(=O)cc(C)c13)CCC(C)(C)O2)C(=O)O (stereo not drawn),cell number change,,51.4%
same,AC50,[2],"16.4 µM [rising, partial curve]"
C=C1SC(Nc2c(C)cccc2C)=NC12CCCCC2,cell number change,,-50.7%
same,AC50,[2],"18.4 µM [falling, single point]"
same,AC50,[1],"20.6 µM [falling, single point]"
CN(CC(=O)Nc1ncn[nH]1)S(=O)(=O)c1ccc(Cl)cc1,cell number change,,-7.5%
CSc1ccccc1-c1n[nH]c(=S)o1,cell number change,,-19%
same,AC50,[2],"4.61 µM [rising, single point]"
same,AC50,[1],"6.51 µM [rising, single point]"
Cc1ccc2c(c1)C(O)(C1COC(C)(C)CC1=O)C(=O)N2C (stereo not drawn),cell number change,,4.4%
same,AC50,[1],"6.51 µM [falling, single point]"
c1cc(CNCC2CCCO2)ccn1 (stereo not drawn),cell number change,,-34.7%
same,AC50,[2],"23.1 µM [falling, single point]"
same,AC50,[1],"11.6 µM [falling, partial curve]"
CCC(=O)Nc1nc(C)c(-c2csc(Nc3ccccn3)n2)s1,cell number change,,-58.5%
same,AC50,[2],"29.1 µM [falling, single point]"
O=S(=O)(NCCc1ccccc1)c1ccc(Br)s1,cell number change,,51.1%
same,AC50,[2],"11.6 µM [rising, partial curve, poor fit]"
same,AC50,[1],"7.31 µM [rising, partial curve]"
Cc1ccc(CN2CCN(CC(=O)NCc3ccccc3)CC2)cc1,cell number change,,0.824%
same,AC50,[1],"16.4 µM [rising, single point]"
c1ccc(CNc2ncnc3nc[nH]c23)cc1,cell number change,,-2.51%
O=C(CCN1CCC(c2ccc(Cl)s2)=N1)c1ccc(Cl)s1,cell number change,,-5.42%
Cc1cccc(NC(=O)/C(C#N)=C\c2cccnc2)c1,AC50,[1],"0.651 µM [falling, single point]"
O=C(NCCc1ccccc1)C1CCN(Cc2ccccc2F)CC1,cell number change,,-3.06%
same,AC50,[2],"0.00461 µM [falling, full curve, poor fit]"
same,AC50,[1],"6.51 µM [falling, single point]"
CC1(C)CC(=O)C(C(C2=C(O)CC(C)(C)CC2=O)c2cccs2)C(=O)C1 (stereo not drawn),cell number change,,-23.9%
same,AC50,[2],"4.11 µM [falling, full curve, poor fit]"
same,AC50,[1],"4.11 µM [falling, full curve, poor fit]"
Cc1ccc(S(=O)(=O)c2nc(C(C)(C)C)oc2N2CCOCC2)cc1,cell number change,,-86.1%
same,AC50,[2],"18.4 µM [falling, single point]"
same,AC50,[1],"29.1 µM [falling, single point]"
COCCNc1cc(NCCOC)c([N+](=O)[O-])cc1[N+](=O)[O-],cell number change,,-2.9%
CCCCN(C)C(=O)c1nc2ccccn2c1CN1CCC[C@H]1CO,cell number change,,29.3%
COc1ccc(Cc2nc3ccc(C(=O)NCC(C)(C)OC)cc3o2)cc1,cell number change,,17.2%
COC(=O)Cn1cc([N+](=O)[O-])nc1C,cell number change,,31.4%
same,AC50,[2],"1.46 µM [rising, full curve]"
same,AC50,[1],"0.731 µM [rising, full curve]"
Cc1ccc(NC(=O)Nc2ccccc2F)cc1S(=O)(=O)N1CCOCC1,cell number change,,23.1%
same,AC50,[1],"23.1 µM [rising, single point]"
O=C(COc1cc(F)ccc1[N+](=O)[O-])N1N=C(c2cccs2)CC1c1ccco1 (stereo not drawn),cell number change,,-2.98%
same,AC50,[1],"6.51 µM [rising, partial curve, poor fit]"
CC(C)c1nnc(NC(=O)C2c3ccccc3Oc3ccccc32)s1,cell number change,,15.4%
same,AC50,[1],"29.1 µM [rising, single point]"
COCC(=O)OCC(=O)c1cc(C)n(-c2ccc(Br)cc2)c1C,AC50,[1],"20.6 µM [rising, single point]"
Cc1cccnc1NC(=O)CSc1nnc(Cc2ccccc2)o1,cell number change,,-24.7%
same,AC50,[1],"2.59 µM [falling, full curve]"
Cc1ccc(S(=O)(=O)NNC(=O)CCC(=O)Nc2ccc(C)cc2C)cc1,cell number change,,-77.2%
same,AC50,[2],"8.2 µM [falling, partial curve, poor fit]"
same,AC50,[1],"5.8 µM [falling, partial curve]"

# A stretch from further up:
compound,measurement,setting,value
NC(=O)c1cc(S(=O)(=O)NCCc2ccc(S(N)(=O)=O)cc2)cs1,cell number change,,9.85%
same,AC50,[1],"6.51 µM [rising, full curve, poor fit]"
N/C(=N/OC(=O)c1ccccc1Cl)c1ncc([N+](=O)[O-])s1,cell number change,,-32.8%
same,AC50,[2],"29.1 µM [falling, single point]"
CN(C1(C)CCS(=O)(=O)C1)S(=O)(=O)c1ccc2ccccc2c1 (stereo not drawn),cell number change,,-0.98%
same,AC50,[2],"0.082 µM [falling, full curve, poor fit]"
Cc1ccc(C(=O)CSc2nnc(CNc3nc(-c4ccccc4)cs3)n2C)cc1,cell number change,,-7.13%
same,AC50,[1],"6.51 µM [rising, partial curve]"
CC(/C=N/NC(=O)c1cnccn1)=C\c1ccco1,cell number change,,31.1%
same,AC50,[2],"25.9 µM [rising, single point]"
C/C(CC(=O)NC1CCCCC1)=N\NC(=O)c1ccccn1,cell number change,,-5.51%
same,AC50,[2],"0.231 µM [falling, full curve, poor fit]"
same,AC50,[1],"0.092 µM [falling, full curve, poor fit]"
CC(C)(C)c1ccc(OCCN2CCCC2)cc1,cell number change,,-2.91%
same,AC50,[1],"0.731 µM [falling, full curve]"
NC(=O)C1CCN(C(=O)C2CCC(=O)N(C3CCCCCC3)C2)CC1 (stereo not drawn),cell number change,,21.5%
same,AC50,[1],"14.6 µM [rising, partial curve, poor fit]"
COc1ccc(CCN(C)C2CCCN(C(=O)c3ccnn3C)C2)cc1OC (stereo not drawn),cell number change,,1.72%
Cn1nnnc1SCCNCc1ccccc1F,cell number change,,-15.3%
same,AC50,[1],"0.103 µM [falling, full curve, poor fit]"
CCn1c(SCc2nc3ccccc3c(=O)[nH]2)nnc1-c1cccnc1,AC50,[1],"0.58 µM [rising, full curve]"
c1cnc2c(OCc3nc4ccccc4[nH]3)cccc2c1,AC50,[2],"0.58 µM [rising, single point]"
same,AC50,[1],"0.58 µM [rising, single point]"
CN=c1scc(-c2ccc(OC)cc2)n1/N=C(\C)c1cccnc1,cell number change,,-18.5%
same,AC50,[2],"0.58 µM [rising, partial curve, poor fit]"
same,AC50,[1],"29.1 µM [falling, single point]"
O=c1ccc2cc(S(=O)(=O)NCc3ccccc3)ccc2[nH]1,cell number change,,-14.7%
CCCC(NC(=O)COc1cc2c(c3oc(=O)cc(C)c13)CCC(C)(C)O2)C(=O)O (stereo not drawn),cell number change,,51.4%
same,AC50,[2],"16.4 µM [rising, partial curve]"
C=C1SC(Nc2c(C)cccc2C)=NC12CCCCC2,cell number change,,-50.7%
same,AC50,[2],"18.4 µM [falling, single point]"
same,AC50,[1],"20.6 µM [falling, single point]"
